Experimental data published in patent US20220332812A1, “TREATMENT METHODS FOR EYE DISORDERS” (University of Pittsburgh - of the Commonwealth System of …, priority 2019, published 2022).
These are yes or no findings as the source states them, for the method shown. In cells and extracts the contact can be indirect. Some entries that bind do so weakly or less than the wild type. Each block holds one binder with its values, some of them ahead of it.

The chains behind the UniProt entries cited, without tags or fusion partners. Residues count along the entry.
UniProt P09055, residues 21-798: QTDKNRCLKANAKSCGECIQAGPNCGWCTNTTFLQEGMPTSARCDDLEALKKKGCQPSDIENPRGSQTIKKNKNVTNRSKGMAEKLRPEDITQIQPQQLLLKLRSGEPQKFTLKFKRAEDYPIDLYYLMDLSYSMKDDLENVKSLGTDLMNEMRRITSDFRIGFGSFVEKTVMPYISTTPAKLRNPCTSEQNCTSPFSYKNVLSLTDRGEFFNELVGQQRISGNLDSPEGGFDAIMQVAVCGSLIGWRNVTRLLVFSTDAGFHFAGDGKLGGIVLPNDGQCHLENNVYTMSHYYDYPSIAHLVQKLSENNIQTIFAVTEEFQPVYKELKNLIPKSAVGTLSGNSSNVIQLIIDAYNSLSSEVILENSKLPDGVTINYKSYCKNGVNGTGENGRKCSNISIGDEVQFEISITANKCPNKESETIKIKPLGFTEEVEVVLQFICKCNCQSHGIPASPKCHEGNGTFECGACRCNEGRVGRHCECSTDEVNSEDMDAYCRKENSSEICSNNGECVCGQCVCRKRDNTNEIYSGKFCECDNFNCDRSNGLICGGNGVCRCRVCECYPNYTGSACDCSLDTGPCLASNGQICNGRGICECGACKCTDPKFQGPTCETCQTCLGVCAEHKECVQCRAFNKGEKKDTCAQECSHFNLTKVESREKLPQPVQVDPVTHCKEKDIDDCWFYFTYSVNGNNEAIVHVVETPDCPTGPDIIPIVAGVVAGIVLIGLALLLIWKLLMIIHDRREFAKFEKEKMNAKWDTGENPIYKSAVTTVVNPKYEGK

What was measured:
[1] = biological target: T1, PTP1B (endogenous, astrocytes) (rat) (UniProt P20417); assay: co-immunoprecipitation in wild-type astrocytes
T1 sequence (looked up): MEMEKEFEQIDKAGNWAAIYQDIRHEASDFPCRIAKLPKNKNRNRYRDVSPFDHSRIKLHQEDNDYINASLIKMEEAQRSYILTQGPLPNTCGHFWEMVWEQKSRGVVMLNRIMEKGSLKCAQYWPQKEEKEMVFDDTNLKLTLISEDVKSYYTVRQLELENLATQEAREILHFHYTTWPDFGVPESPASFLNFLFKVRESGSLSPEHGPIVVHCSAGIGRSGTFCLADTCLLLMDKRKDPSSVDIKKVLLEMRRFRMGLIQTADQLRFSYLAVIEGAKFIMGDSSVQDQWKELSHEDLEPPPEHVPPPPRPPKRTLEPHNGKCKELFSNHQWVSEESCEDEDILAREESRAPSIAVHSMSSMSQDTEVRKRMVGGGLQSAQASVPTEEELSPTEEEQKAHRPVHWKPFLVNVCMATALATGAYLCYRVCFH

[2] = biological target: T2, Dab2 (endogenous, in mouse bone marrow-derived neutrophils) (mouse) (UniProt P98078); assay: pull-down / co-immunoprecipitation from neutrophil lysates, western blot
T2 sequence (looked up): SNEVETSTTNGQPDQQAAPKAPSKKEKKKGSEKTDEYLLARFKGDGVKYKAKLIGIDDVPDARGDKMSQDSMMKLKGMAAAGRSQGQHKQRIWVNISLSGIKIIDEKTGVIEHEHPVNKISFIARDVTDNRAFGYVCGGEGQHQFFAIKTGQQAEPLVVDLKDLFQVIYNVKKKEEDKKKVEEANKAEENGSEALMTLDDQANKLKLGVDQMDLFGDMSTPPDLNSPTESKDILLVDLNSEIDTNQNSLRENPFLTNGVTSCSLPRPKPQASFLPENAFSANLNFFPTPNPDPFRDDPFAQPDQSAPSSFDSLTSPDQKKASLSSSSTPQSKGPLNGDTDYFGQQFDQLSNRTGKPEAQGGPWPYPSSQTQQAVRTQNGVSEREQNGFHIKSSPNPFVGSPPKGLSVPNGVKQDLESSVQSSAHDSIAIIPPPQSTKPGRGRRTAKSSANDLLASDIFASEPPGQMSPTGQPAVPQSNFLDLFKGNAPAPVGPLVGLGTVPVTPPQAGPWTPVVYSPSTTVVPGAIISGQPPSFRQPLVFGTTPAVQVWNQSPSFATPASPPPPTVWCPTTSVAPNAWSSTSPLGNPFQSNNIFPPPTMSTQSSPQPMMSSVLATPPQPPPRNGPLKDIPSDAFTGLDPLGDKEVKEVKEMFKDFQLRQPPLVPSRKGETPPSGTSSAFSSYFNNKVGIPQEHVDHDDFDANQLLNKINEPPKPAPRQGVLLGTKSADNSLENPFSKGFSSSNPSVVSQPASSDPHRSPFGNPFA

[3] = biological target: integrin β1 (endogenous, in mouse bone marrow-derived neutrophils) (mouse) (UniProt P09055); assay: co-immunoprecipitation from neutrophil lysates, western blot

binding [1]: binds
B1: βA3/A1-crystallin protein (endogenous, wild-type astrocytes) (protein, rat, UniProt P14881 1-215, looked up)
chain: METQTVQRELETLPTTKMAQTNPMPGSMGPWKITIYDQENFQGKRMEFTSSCPNVSERSFDNVRSLKVECGAWIGYEHTSFCGQQFILERGEYPRWDAWSGSNAYHIERLMSFRPICSANHKESKITIFEKENFIGRQWEICDDYPSLQAMGWFNNEVGSMKIQCGAWVCYQYPGYRGYQYILECDHHGGDYKHWREWGTHAQTSQIQSIRRIQQ

binding [2]: binds
B2: LCN-2 (endogenous, in mouse bone marrow-derived neutrophils) (protein, UniProt P11672 21-200, looked up)
chain: QDSTQNLIPAPSLLTVPLQPDFRSDQFRGRWYVVGLAGNAVQKKTEGSFTMYSTIYELQENNSYNVTSILVRDQDQGCRYWIRTFVPSSRAGQFTLGNMHRYPQVQSYNVQVATTDYNQFAMVFFRKTSENKQYFKITLYGRTKELSPELKERFTRFAKSLGLKDDNIIFSVPTDQCIDN

binding [3]: binds
B3: Dab2 (endogenous, in mouse bone marrow-derived neutrophils) (protein, UniProt P98078 2-766, looked up)
chain: SNEVETSTTNGQPDQQAAPKAPSKKEKKKGSEKTDEYLLARFKGDGVKYKAKLIGIDDVPDARGDKMSQDSMMKLKGMAAAGRSQGQHKQRIWVNISLSGIKIIDEKTGVIEHEHPVNKISFIARDVTDNRAFGYVCGGEGQHQFFAIKTGQQAEPLVVDLKDLFQVIYNVKKKEEDKKKVEEANKAEENGSEALMTLDDQANKLKLGVDQMDLFGDMSTPPDLNSPTESKDILLVDLNSEIDTNQNSLRENPFLTNGVTSCSLPRPKPQASFLPENAFSANLNFFPTPNPDPFRDDPFAQPDQSAPSSFDSLTSPDQKKASLSSSSTPQSKGPLNGDTDYFGQQFDQLSNRTGKPEAQGGPWPYPSSQTQQAVRTQNGVSEREQNGFHIKSSPNPFVGSPPKGLSVPNGVKQDLESSVQSSAHDSIAIIPPPQSTKPGRGRRTAKSSANDLLASDIFASEPPGQMSPTGQPAVPQSNFLDLFKGNAPAPVGPLVGLGTVPVTPPQAGPWTPVVYSPSTTVVPGAIISGQPPSFRQPLVFGTTPAVQVWNQSPSFATPASPPPPTVWCPTTSVAPNAWSSTSPLGNPFQSNNIFPPPTMSTQSSPQPMMSSVLATPPQPPPRNGPLKDIPSDAFTGLDPLGDKEVKEVKEMFKDFQLRQPPLVPSRKGETPPSGTSSAFSSYFNNKVGIPQEHVDHDDFDANQLLNKINEPPKPAPRQGVLLGTKSADNSLENPFSKGFSSSNPSVVSQPASSDPHRSPFGNPFA
